The text below walks through data of article PMC9469980.

Sequences of proteins named here, by UniProt entry; tags and fusion partners are left off.
UniProt P08962: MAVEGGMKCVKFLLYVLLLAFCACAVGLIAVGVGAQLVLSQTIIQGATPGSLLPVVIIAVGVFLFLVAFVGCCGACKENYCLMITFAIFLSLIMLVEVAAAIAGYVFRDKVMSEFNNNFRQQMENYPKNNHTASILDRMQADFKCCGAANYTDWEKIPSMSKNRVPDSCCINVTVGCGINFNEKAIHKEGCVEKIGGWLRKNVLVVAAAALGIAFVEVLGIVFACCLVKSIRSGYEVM

The target in this test is T1, flotillin-1 (UniProt O75955).
T1 sequence: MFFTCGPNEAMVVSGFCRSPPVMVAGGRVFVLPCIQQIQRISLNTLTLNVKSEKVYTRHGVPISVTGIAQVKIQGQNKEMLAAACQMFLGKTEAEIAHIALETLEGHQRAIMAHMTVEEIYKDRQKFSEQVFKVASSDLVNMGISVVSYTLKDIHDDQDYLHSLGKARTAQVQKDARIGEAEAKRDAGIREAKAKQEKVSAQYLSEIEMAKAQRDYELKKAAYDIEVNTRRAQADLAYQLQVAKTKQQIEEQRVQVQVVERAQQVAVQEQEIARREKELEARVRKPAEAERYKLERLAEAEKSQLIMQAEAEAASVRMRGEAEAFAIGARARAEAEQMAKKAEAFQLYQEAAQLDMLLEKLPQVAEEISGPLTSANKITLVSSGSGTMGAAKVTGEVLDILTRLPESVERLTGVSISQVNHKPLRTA
Put plainly: co-IP; EV isolates (ExoQuick-TC) from supernatants of mock- or CVB-infected cells (MOI 0.1, 24 h); immunoprecipitated with flotillin-1 antibody on protein A/G PLUS-Agarose beads; blotted for VP1, flotillin-1 and CD63.

Results are given in words; binding and its absence hold for the method and conditions named. Binding seen in cells or lysates may run through a third protein. Some entries that bind do so weakly or less than the wild type.

CD63 (from UniProt P08962 1-238): the binding entry is given as “binds”.
